We go through 8 molecules from the supplement of paper PMC12872613.

SMILES strings stand for the structures. Structures can show the parent of a compound that is named as a salt. The list shows a part of the results. No stated cut-off is given here; in the data, active = 0.7 or more and inactive = the rest. Repeats are few or missing, and single values can be far off.

The assay concerns MiaPaCa-2 CLSA-25. Description: cell death relative to DMSO vehicle (fraction); higher = more cytotoxic. The note with it: 5 µM; treatment time 48 h; medium cystine 25 µM.
For `Cc1ccc(C(=O)c2cc(O)c(O)c([N+](=O)[O-])c2)cc1` [Tolcapone], the cell death is inactive: 0.219.

With `Cn1c(=O)c2c(ncn2CC2OCCO2)n(C)c1=O` [Doxofylline], the cell death is inactive: 0.142.

For `Cc1cnc(C(=O)NCCc2ccc(S(=O)(=O)NC(=O)NC3CCCCC3)cc2)cn1` [Glipizide], the cell death is inactive: 0.284.

On to `COc1ccccc1N1CCN(CCN(C(=O)C2CCCCC2)c2ccccn2)CC1`, for which the cell death is inactive: 0.147.

For `CCN(CC)CCCC(C)Nc1c2ccc(Cl)cc2nc2ccc(OC)cc12` (stereo not drawn) [Quinacrine dihydrochloride], the cell death is inactive: 0.557.

On to `O=c1ccc2ccccc2o1` [Coumarin], for which the cell death was inactive: 0.385.

`CCOc1cc(NC(C)=O)ccc1C(=O)OC` [Ethopabate]: the cell death was inactive: 0.135.

`O=C(O)CCC(CP(=O)(O)O)C(=O)O` (stereo not drawn): the cell death is inactive: 0.358.
